PubChem BioAssay AID743454 | Peter MacCallum Cancer Centre, 2014

Purpose: 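Knock-downs lowering viability or raising caspase 3/7 activity in vorinostat-treated resistant cells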 (primary screen)
Cells: human HCT116-VR colon cancer cells, selected for vorinostat resistance
Reagent: siRNA pool against human genes, 40 nM siRNA pool
Duration: vorinostat for 24 h, read-out about 72 h after transfection
Treatment: vorinostat at 2.5 µM final
Detection: 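Cell viability by CellTiter-Fluor and caspase 3/7 activity by luminescence, each scaled to mock wells per plate, duplicates averaged, then robust z-scored over all plates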
Scale: viability robust z-score: higher = more viable cells than screen typical; caspase robust z-score: higher = more caspase 3/7 activity than screen typical
Active means: 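Hits are knock-downs in viability class RV1/RV2 or caspase class CA1/CA2, excluding ones that killed cells in the no-drug cell-count arm; hits then retested with single siRNAs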
This is an unselected part of about 18,000 deposited reagents. 450 of all reagents (2.5%) count as active. 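Single biological run; no consistent viability z cut-off exists, so the class columns, not z-scores, define the calls.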

Target gene,PubChem SID,viability hit class,caspase hit class,viability robust z-score,caspase robust z-score,outcome
GIT2 (GIT ArfGAP 2),SID134317110,no change,no change,-0.24,-0.8,inactive
STAT4 (signal transducer and activator of transcription 4),SID134316102,no change,no change,0.77,0.2,inactive
LOC389834 (ankyrin repeat domain 57 pseudogene),SID135625006,no change,no change,1.12,-0.52,inactive
NEGR1 (neuronal growth regulator 1),SID135623510,no change,no change,0.92,-0.56,inactive
TUBGCP3 (tubulin gamma complex component 3),SID152149540,no change,no change,-2.29,4.53,inactive
MEIS1 (Meis homeobox 1),SID134316046,no change,no change,-0.2,-0.68,inactive
PADI6 (peptidyl arginine deiminase 6),SID152151190,no change,no change,0.94,-0.26,inactive
LEAP2 (liver enriched antimicrobial peptide 2),SID152150535,no change,no change,-1.1,-1.08,inactive
VCF2 (VCP nuclear cofactor family member 2),SID152154142,no change,no change,-0.06,-0.26,inactive
NAV1 (neuron navigator 1),SID152148054,no change,no change,-0.89,1.39,inactive
HIGD1B (HIG1 hypoxia inducible domain family member 1B),SID134320993,no change,no change,-0.4,-0.92,inactive
GPR34 (G protein-coupled receptor 34),SID135621027,no change,no change,1.01,1.86,inactive
AWAT1 (acyl-CoA wax alcohol acyltransferase 1),SID135621915,no change,no change,1.6,3.2,inactive
SYT12 (synaptotagmin 12),SID135623532,no change,no change,1.34,-0.3,inactive
TTC9C (tetratricopeptide repeat domain 9C),SID135623504,no change,no change,1,-0.14,inactive
TTLL6 (tubulin tyrosine ligase like 6),SID152147177,no change,no change,0.28,-0.86,inactive
CDK7 (cyclin dependent kinase 7),SID152150057,no change,no change,0.2,-0.74,inactive
VPS35L (VPS35 endosomal protein sorting factor like),SID152154229,no change,no change,0.79,-0.07,inactive
"PSENEN (presenilin enhancer, gamma-secretase subunit)",SID152156610,no change,no change,-0.08,-0.7,inactive
ALAS1 (5'-aminolevulinate synthase 1),SID134314040,no change,no change,0.24,-0.72,inactive

8 entries from above, showing only “viability hit class”.
NAV1 (neuron navigator 1) [SID152148054]	no change
HIGD1B (HIG1 hypoxia inducible domain family member 1B) [SID134320993]	no change
GPR34 (G protein-coupled receptor 34) [SID135621027]	no change
AWAT1 (acyl-CoA wax alcohol acyltransferase 1) [SID135621915]	no change
SYT12 (synaptotagmin 12) [SID135623532]	no change
TTC9C (tetratricopeptide repeat domain 9C) [SID135623504]	no change
TTLL6 (tubulin tyrosine ligase like 6) [SID152147177]	no change
CDK7 (cyclin dependent kinase 7) [SID152150057]	no change

Continued:
Target gene,PubChem SID,viability hit class,caspase hit class,viability robust z-score,caspase robust z-score,outcome
TBC1D8 (TBC1 domain family member 8),SID152154777,no change,no change,-1.38,0.09,inactive
TIMP1 (TIMP metallopeptidase inhibitor 1),SID135622196,no change,no change,-0.01,1.11,inactive
TRIM8 (tripartite motif containing 8),SID152155846,no change,no change,-2.05,-0.6,inactive
NFRKB (nuclear factor related to kappaB binding protein),SID134319678,no change,no change,-1.41,0.69,inactive
OSM (oncostatin M),SID134315028,no change,no change,0.88,-0.23,inactive
SRPK2 (SRSF protein kinase 2),SID56478890,no change,no change,1.16,-0.72,inactive
ERO1B (endoplasmic reticulum oxidoreductase 1 beta),SID134321994,no change,no change,1.36,-0.5,inactive
SMPD4 (sphingomyelin phosphodiesterase 4),SID135624027,no change,no change,1.4,-1.33,inactive
BORA (BORA aurora kinase A activator),SID134318610,no change,no change,0.04,-0.46,inactive
TMEM120A (transmembrane protein 120A),SID134318856,no change,no change,1.03,0.51,inactive
NECTIN3 (nectin cell adhesion molecule 3),SID134318146,no change,no change,0.06,-0.38,inactive
OR52N5 (olfactory receptor family 52 subfamily N member 5),SID152151926,no change,no change,-1.14,0.17,inactive
FBXO16 (F-box protein 16),SID134321383,no change,no change,-0.29,-1.16,inactive
ENY2 (ENY2 transcription and export complex 2 subunit),SID134322646,no change,no change,-1.09,3.99,inactive
APC2 (APC regulator of Wnt signaling pathway 2),SID152155591,no change,no change,-0.1,-0.92,inactive
SYNE3 (spectrin repeat containing nuclear envelope family member 3),SID152152796,no change,no change,0.34,1.25,inactive
MAMDC4 (MAM domain containing 4),SID135624529,no change,no change,0.34,-0.5,inactive
TRAPPC2 (trafficking protein particle complex subunit 2),SID152149965,no change,no change,-0.27,-0.58,inactive
AKAP19 (A-kinase anchoring protein 19),SID135622827,no change,no change,0.58,0.24,inactive
SOWAHC (sosondowah ankyrin repeat domain family member C),SID135622702,no change,no change,-1.05,3.46,inactive
PEX5 (peroxisomal biogenesis factor 5),SID134319812,no change,no change,0.05,0.09,inactive
BEND7 (BEN domain containing 7),SID135623247,no change,no change,-0.2,-0.48,inactive
GUCY1A1 (guanylate cyclase 1 soluble subunit alpha 1),SID152154241,no change,no change,0.26,0.22,inactive
ZNF34 (zinc finger protein 34),SID152152669,no change,no change,1.17,-0.26,inactive
INTS4 (integrator complex subunit 4),SID152150490,no change,no change,0.04,0.89,inactive
PAK1 (p21 (RAC1) activated kinase 1),SID135620692,no change,no change,1.19,0.98,inactive
NSD2 (nuclear receptor binding SET domain protein 2),SID134311890,no change,no change,-1.06,-0.39,inactive
OOEP (oocyte expressed protein),SID135625337,no change,no change,0.75,0.95,inactive
MRPS18C (mitochondrial ribosomal protein S18C),SID134317366,no change,no change,-0.1,4.27,inactive
ASIP (agouti signaling protein),SID152153587,no change,no change,0.92,2.4,inactive
TRAPPC1 (trafficking protein particle complex subunit 1),SID135622610,no change,no change,-1.5,0.73,inactive
KLHL22 (kelch like family member 22),SID135623034,no change,no change,1.24,-0.38,inactive
SLC29A2,SID134312552,no change,no change,-1.39,0.53,inactive
PCNX4 (pecanex 4),SID152152751,no change,no change,1.31,0.5,inactive
FBXO39 (F-box protein 39),SID134320845,no change,no change,-0.29,-0.27,inactive
SLC25A42,SID152156124,no change,no change,0.8,-0.8,inactive
HIPK2 (homeodomain interacting protein kinase 2),SID56478619,no change,no change,0.18,1.08,inactive
